# This is one part of the list. Single values are uncertain, as repeats are few or missing.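 Cells were imaged in 1,536-well plates, and nuclei stained with an antibody against cleaved PARP were counted against all DNA-stained nuclei to give the apoptosis fraction. Screening doses were chosen to leave most cells alive, and resting and induced cleaved-PARP levels differ strongly between cell lines.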
# Key:
# Assay in all cases: cleaved PARP positive nuclei fraction relative to DMSO control; melanoma cells; higher = more apoptosis
# Settings in all cases: library dose: low library concentration; 72 h
# COLO792 = test system: COLO792
# COLO800 = test system: COLO800
# COLO829 = test system: COLO829
# G361 = test system: G361
# IPC-298 = test system: IPC-298
# IST-MEL1 = test system: IST-MEL1
# LB2518-MEL = test system: LB2518-MEL
# LOXIMVI = test system: LOXIMVI
SMILES,cleaved PARP positive nuclei fraction (COLO792) [%],cleaved PARP positive nuclei fraction (COLO800) [%],cleaved PARP positive nuclei fraction (COLO829) [%],cleaved PARP positive nuclei fraction (G361) [%],cleaved PARP positive nuclei fraction (IPC-298) [%],cleaved PARP positive nuclei fraction (IST-MEL1) [%],cleaved PARP positive nuclei fraction (LB2518-MEL) [%],cleaved PARP positive nuclei fraction (LOXIMVI) [%]
"C[C@]12O[C@H](C[C@]1(O)CO)n1c3ccccc3c3c4c(c5c6ccccc6n2c5c31)CNC4=O [Lestaurtinib] + Cc1cc(SCc2sc(-c3ccc(C(F)(F)F)c(F)c3)nc2C)ccc1OCC(=O)O [GW0742] (first compound 0.004 µM, partner dose 2 µM)",148,62.5,80.3,141,31.7,120,158,146
"Cn1sc(=O)n(Cc2ccccc2)c1=O + Cc1cc(SCc2sc(-c3ccc(C(F)(F)F)c(F)c3)nc2C)ccc1OCC(=O)O [GW0742] (first compound 0.4 µM, partner dose 2 µM)",155,65.6,79.4,67.4,94.6,189,77.1,63.3
"C=C(c1ccc(C(=O)O)cc1)c1cc2c(cc1C)C(C)(C)CCC2(C)C [Bexarotene] + O=C(Oc1ccc([N+](=O)[O-])cc1)N1CCC(C(O)(c2ccc3c(c2)OCO3)c2ccc3c(c2)OCO3)CC1 [JZL184] (first compound 2 µM, partner dose 1 µM)",176,14.4,70.2,163,173,63.6,73.2,18.5
"CO[C@H]1C[C@@H]2CC[C@@H](C)[C@@](O)(O2)C(=O)C(=O)N2CCCC[C@H]2C(=O)O[C@H]([C@H](C)C[C@@H]2CC[C@@H](OCCO)[C@H](OC)C2)CC(=O)[C@H](C)/C=C(\C)[C@@H](O)[C@@H](OC)C(=O)[C@H](C)C[C@H](C)/C=C/C=C/C=C/1C [everolimus] + Cc1cc(SCc2sc(-c3ccc(C(F)(F)F)c(F)c3)nc2C)ccc1OCC(=O)O [GW0742] (first compound 0.02 µM, partner dose 2 µM)",71.1,79.9,31.3,117,60.2,128,29.9,154
"CCCCCCCCCCCCCCCCCCOP(=O)([O-])OC1CC[N+](C)(C)CC1 [Perifosine] + Cc1cc(SCc2sc(-c3ccc(C(F)(F)F)c(F)c3)nc2C)ccc1OCC(=O)O [GW0742] (first compound 0.4 µM, partner dose 2 µM)",89.5,66.7,158,72.4,60.9,236,134,55.7
"OCc1c[nH]c2ccccc12 [Indole-3-carbinol] + O=C(Oc1ccc([N+](=O)[O-])cc1)N1CCC(C(O)(c2ccc3c(c2)OCO3)c2ccc3c(c2)OCO3)CC1 [JZL184] (first compound 0.8 µM, partner dose 1 µM)",128,84.1,151,117,69.9,99.7,64.6,147
"CC1(C)CCC(c2ccc(Cl)cc2)=C(CN2CCN(c3ccc(C(=O)NS(=O)(=O)c4ccc(N[C@H](CCN5CCOCC5)CSc5ccccc5)c(S(=O)(=O)C(F)(F)F)c4)cc3)CC2)C1 + O=C(Oc1ccc([N+](=O)[O-])cc1)N1CCC(C(O)(c2ccc3c(c2)OCO3)c2ccc3c(c2)OCO3)CC1 [JZL184] (first compound 0.4 µM, partner dose 1 µM)",351,81.5,28.3,102,117,83.9,106,122
"C[C@]12O[C@H](C[C@]1(O)CO)n1c3ccccc3c3c4c(c5c6ccccc6n2c5c31)CNC4=O [Lestaurtinib] + O=c1cc(-c2cccc3c2Sc2ccccc2S3)oc(N2CCOCC2)c1 [KU55933] (first compound 0.004 µM, partner dose 1 µM)",92.3,34.4,62.4,111,50.1,74.7,81.1,114
"Nc1nc(F)nc2c1ncn2[C@@H]1O[C@H](CO)[C@@H](O)[C@@H]1O [fludarabine] + O=C(Oc1ccc([N+](=O)[O-])cc1)N1CCC(C(O)(c2ccc3c(c2)OCO3)c2ccc3c(c2)OCO3)CC1 [JZL184] (first compound 0.2 µM, partner dose 1 µM)",128,86.3,140,109,218,100,62.5,105
"C[C@]12O[C@H](C[C@]1(O)CO)n1c3ccccc3c3c4c(c5c6ccccc6n2c5c31)CNC4=O [Lestaurtinib] + C/C(O)=C(\C#N)C(=O)Nc1cc(Br)ccc1Br [LFM-A13] (first compound 0.004 µM, partner dose 2 µM)",68.8,87.8,144,50.2,144,137,74.2,21.9
"Cn1cc(C2=C(c3cn(C4CCN(Cc5ccccn5)CC4)c4ccccc34)C(=O)NC2=O)c2ccccc21 [Enzastaurin] + N#Cc1c(O)c2c(-c3ccc(-c4ccccc4O)cc3)csc2[nH]c1=O [A769662] (first compound 0.8 µM, partner dose 2 µM)",58,46.8,40.4,85.1,126,66.1,223,219

# Shown with tabs: entries from further up
SMILES	cleaved PARP positive nuclei fraction (COLO792) [%]	cleaved PARP positive nuclei fraction (COLO800) [%]	cleaved PARP positive nuclei fraction (COLO829) [%]	cleaved PARP positive nuclei fraction (G361) [%]	cleaved PARP positive nuclei fraction (IPC-298) [%]	cleaved PARP positive nuclei fraction (IST-MEL1) [%]	cleaved PARP positive nuclei fraction (LB2518-MEL) [%]	cleaved PARP positive nuclei fraction (LOXIMVI) [%]
C=C(c1ccc(C(=O)O)cc1)c1cc2c(cc1C)C(C)(C)CCC2(C)C [Bexarotene] + O=C(Oc1ccc([N+](=O)[O-])cc1)N1CCC(C(O)(c2ccc3c(c2)OCO3)c2ccc3c(c2)OCO3)CC1 [JZL184] (first compound 2 µM, partner dose 1 µM)	176	14.4	70.2	163	173	63.6	73.2	18.5
CO[C@H]1C[C@@H]2CC[C@@H](C)[C@@](O)(O2)C(=O)C(=O)N2CCCC[C@H]2C(=O)O[C@H]([C@H](C)C[C@@H]2CC[C@@H](OCCO)[C@H](OC)C2)CC(=O)[C@H](C)/C=C(\C)[C@@H](O)[C@@H](OC)C(=O)[C@H](C)C[C@H](C)/C=C/C=C/C=C/1C [everolimus] + Cc1cc(SCc2sc(-c3ccc(C(F)(F)F)c(F)c3)nc2C)ccc1OCC(=O)O [GW0742] (first compound 0.02 µM, partner dose 2 µM)	71.1	79.9	31.3	117	60.2	128	29.9	154

# Source: the supplement of paper PMC4604168 (melanoma cell lines)
